Measured values published in PubChem BioAssay AID540256 (National Center for Advancing Translational Sciences (NCATS), 2011).
The campaign covered roughly 300,000 compounds. About 3,700 (1.2%) were called active. The shares of active, inactive and inconclusive entries below differ from those in the screen. Calls follow the shape of the full dose curve; tested in HEK293 cells. Where the call is inconclusive, the potency comes from a doubtful curve fit.
% is scaled to controls: 0 for no effect and ±100 for the full control effect; potency is read from the fitted curve at half-maximal effect.

Assay: qHTS for Inhibitors of binding or entry into cells for Lassa Virus; also: nearly all actives have a fitted effect of over 50% in size
Conditions: Lassa virus pseudotype entry inhibition, cell reporter; activity change, negative = inhibition: at 37.9 µM (top of the series) unless noted
In the case of `COc1cccc(NC(=O)Nc2cccc(C(=O)O)c2)c1`, the Potency is reported as inconclusive: 1 µM [inhibitor, full curve, poor fit]. With `CCSc1ncc(Cl)c(C(=O)N(Cc2ccccc2)Cc2ccco2)n1` the “activity change, negative = inhibition” value was inactive: 15.9% [at 46.1 µM]. With `CCCOc1ccc(NC(=O)CC2C(=O)N(c3ccc(C)cc3)C(=O)N2C2CCCC2)cc1` (stereo not drawn) the Potency was inconclusive: 7.94 µM [inhibitor, partial curve]. For `CCOC(=O)c1c(NC(=O)CC(C)C)sc(C(C)=O)c1C`, the “activity change, negative = inhibition” value was inactive: 2.88%. In the case of `O=C(CN1C(=O)CCc2cc(S(=O)(=O)N3CCOCC3)ccc21)NCc1ccccc1Cl`, the “activity change, negative = inhibition” value is reported as inactive: 5.12% [at 46.1 µM]. With `Cc1ccc(N2CC(C(=O)N3CCC(C(=O)Nc4cccc(Br)c4)CC3)CC2=O)cc1` (stereo not drawn) the Potency was inconclusive: 12.6 µM [activator, single point]. With `COc1ccc(C2SCC(C(=O)O)N2C(C)=O)cc1` (stereo not drawn) the Potency was inconclusive: 1.83 µM [inhibitor, partial curve, poor fit]. With `CCOC(=O)N1CCN(C(=O)CNC(=O)c2nn(-c3ccc(OC)c(Cl)c3)c(=O)c3ccccc23)CC1` the Potency was inconclusive: 3.55 µM [inhibitor, single point]. With `Cc1ccc(Nc2nc3ccccc3[nH]2)nc1` the Potency was inconclusive: 3.55 µM [activator, partial curve, poor fit]. With `CCCC(=O)N1CCN(c2ccc(NC(=O)c3ccc(N4CCCC4)c([N+](=O)[O-])c3)cc2Cl)CC1` the “activity change, negative = inhibition” value was inactive: -0.208%. With `C(=C\c1nc(N2CCCC2)c2ccccc2n1)/c1ccccc1` the Potency was inconclusive: 17.8 µM [inhibitor, single point]. With `Cc1c(NC(=O)c2cc3c(s2)-c2ccccc2OC3)cccc1[N+](=O)[O-]` the Potency was inconclusive: 29.1 µM [inhibitor, single point]. For `Cc1cccc(-n2nnc(C(=O)Nc3ccc(F)cc3)c2N)c1`, the Potency was inconclusive: 0.146 µM [activator, full curve]. With `CCn1c(SCC(=O)Nc2cc(C)nn2-c2ccccc2)nnc1-c1cccs1` the Potency was inconclusive: 35.5 µM [inhibitor, partial curve, poor fit]. With `CC(NC(=O)CSc1ncnc2nc[nH]c12)c1ccccc1` (stereo not drawn) the Potency was inconclusive: 29.1 µM [activator, single point]. With `CCCn1nc(NC(=O)c2cccs2)c2cc3ccccc3nc21` the Potency was inconclusive: 18.3 µM [inhibitor, partial curve, poor fit]. With `CC1(C)CC(=O)C2=C(C1)NC1=C(C(=O)c3ccccc31)C2c1ccc(O)cc1` (stereo not drawn) the “activity change, negative = inhibition” value was inactive: -23.5%. In the case of `Nc1ccc(-c2nc3nc(N)nc(N)c3nc2-c2ccc(N)cc2)cc1`, the Potency is reported as inconclusive: 3.55 µM [inhibitor, partial curve, poor fit].
